No constants are given. Whether binding was seen depends on the method and setting. Some entries that bind do so weakly or less than the wild type. Tags and fused reporters may be left off the sequences shown.
T1: P1243 (evasin from Amblyomma americanum), purified, C-terminal StrepII:8xHis tag (Amblyomma americanum)
T1 sequence: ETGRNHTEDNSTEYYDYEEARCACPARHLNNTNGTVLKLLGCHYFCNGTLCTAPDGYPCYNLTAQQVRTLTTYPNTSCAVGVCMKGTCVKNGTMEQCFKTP

T2: P1156 (evasin from Ixodes ricinus), purified, C-terminal StrepII:His tag (Ixodes ricinus) (UniProt V5HBW0)
T2 sequence: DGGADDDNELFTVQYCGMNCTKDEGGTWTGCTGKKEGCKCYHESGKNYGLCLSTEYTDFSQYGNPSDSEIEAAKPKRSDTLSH


Experiments:
[1] = biological target: T1, P1243 (evasin from Amblyomma americanum), purified, C-terminal StrepII:8xHis tag (Amblyomma americanum); assay: BLI; cross-binding screen; His-tagged evasin immobilised on Ni-NTA biosensors (OctetRed); 300 nM chemokine; 30 °C; 10 mM Na2HPO4, 1.8 mM KH2PO4, 2.7 mM KCl, 500 mM NaCl, 0.1% BSA, 0.002% TWEEN-20, pH 7.4; single experiment; both purified
[2] = biological target: T2, P1156 (evasin from Ixodes ricinus), purified, C-terminal StrepII:His tag (Ixodes ricinus); assay: as above

Binder	binding [1]	binding [2]
CXCL13 (ligand, UniProt O43927 23-109) VLEVYYTSLRCRCVQESSVFIPRRFIDRIQILPRGNGCPRKEIIVWKKNKSIVCVDPQAEWIQRMMEVLRKRSSSTLPVPVFKRKIP	no binding (tested: 300 nM)	no binding (tested: 300 nM)
XCL1 (ligand, UniProt P47992 22-114) VGSEVSDKRTCVSLTTQRLPVSRIKTYTITEGSLRAVIFITKRGLKVCADPQATWVRDVVRSMDRKSNTRNNMIQTKPTGTQQSTNTAVTLTG	binds weakly	no binding (tested: 300 nM)
CXCL14 (ligand, UniProt O95715 35-111) SKCKCSRKGPKIRYSDVKKLEMKPKYPHCEEKMVIITTKSVSRYRGQEHCLHPKLQSTKRFIKWYNAWNEKRRVYEE	–	no binding (tested: 300 nM)

From article PMC5910400
